Data on 3 molecules can be found in article PMC7039678.

T1: Myc-tagged EDEM2 (human) (UniProt Q9BV94)
T1 sequence: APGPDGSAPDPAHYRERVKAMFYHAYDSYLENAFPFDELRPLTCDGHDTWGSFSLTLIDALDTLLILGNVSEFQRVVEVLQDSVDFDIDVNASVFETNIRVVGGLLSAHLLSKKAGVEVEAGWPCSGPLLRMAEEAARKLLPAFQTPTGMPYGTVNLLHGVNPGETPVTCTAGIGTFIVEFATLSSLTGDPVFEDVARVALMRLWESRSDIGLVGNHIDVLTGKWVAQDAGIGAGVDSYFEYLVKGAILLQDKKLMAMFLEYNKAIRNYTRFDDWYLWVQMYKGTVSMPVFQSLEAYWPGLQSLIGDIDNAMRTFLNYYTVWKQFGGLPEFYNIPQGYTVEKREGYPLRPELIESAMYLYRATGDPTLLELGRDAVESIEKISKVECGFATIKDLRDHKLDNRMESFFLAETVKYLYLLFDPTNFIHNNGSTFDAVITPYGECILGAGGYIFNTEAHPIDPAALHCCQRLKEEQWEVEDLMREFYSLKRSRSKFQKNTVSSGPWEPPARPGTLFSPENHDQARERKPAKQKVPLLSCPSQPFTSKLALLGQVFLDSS

B1: 3x Flag-tagged C695S mutant of TXNDC11 (protein, UniProt Q6PKC3-2 1-958)
chain: MSECGGRGGGSSSSEDAEDEGGGGGGPAGSDCLSSSPTLATASSAGRLRRGLRGAFLMARQRPELLCGAVALGCALLLALKFTCSRAKDVIIPAKPPVSFFSLRSPVLDLFQGQLDYAEYVRRDSEVVLLFFYAPWCGQSIAARAEIEQAASRLSDQVLFVAINCWWNQGKCRKQKHFFYFPVIYLYHRSFGPIEYKGPMSAVYIEKFVRRVMKPLLYIPSQSELLDFLSNYEPGVLGYFEFSGSPQPPGYLTFFTSALHSLKKDYLGTVRFGVITNKHLAKLVSLVHSGSVYLHRHFNTSLVFPREVLNYTAENICKWALENQETLFRWLRPHGGKSLLLNNELKKGPALFLFIPFNPLAESHPLIDEITEVALEYNNCHGDQVVERLLQHLRRVDAPVLESLALEVPAQLPDPPTITASPCCNTVVLPQWHSFSRTHNVCELCVNQTSGGMKPSSVSVPQCSFFEMAAALDSFYLKEQTFYHVASDSIECSNFLTSYSPFSYYTACCRTISRGVSGFIDSEQGVFEAPTVAFSSLEKKCEVDAPSSVPHIEENRYLFPEVDMTSTNFTGLSCRTNKTLNIYLLDSNLFWLYAERLGAPSSTQVKEFAAIVDVKEESHYILDPKQALMKLTLESFIQNFSVLYSPLKRHLIGSGSAQFPSQHLITEVTTDTFWEVVLQKQDVLLLYYAPWCGFSPSLNHIFIQLARNLPMDTFTVARIDVSQNDLPWEFMVDRLPTVLFFPCNRKDLSVKYPEDVPITLPNLLRFILHHSDPASSPQNVANSPTKECLQSEAVLQRGHISHLEREIQKLRAEISSLQRAQVQVESQLSSARRDEHRLRQQQRALEEQHSLLHAHSEQLQALYEQKTRELQELARKLQELADASENLLTENTWLKILVATMERKLEGRDGAESLAAQREVHPKQPEPSATPQLPGSSPPPANVSATLVSERNKENRTD
B2: 3x Flag-tagged C692S mutant of TXNDC11 (protein, UniProt Q6PKC3-2 1-958)
chain: B1 chain with C692S, S695C
B3: 3x Flag-tagged TXNDC11 (WT) (protein, UniProt Q6PKC3-2 1-958)
chain: B1 chain with S695C
modifications: N-glycosylated

Changes are numbered by the printed parent chain. In names and notes the source's numbering stands. These are yes or no findings as the source states them, for the method shown. Some entries that bind do so weakly or less than the wild type. Sequences can lack the tags named with a protein.

The target in the assay is T1, Myc-tagged EDEM2 (human). Put plainly: non-reducing SDS-PAGE with immunoblotting (disulfide-bonded complex); lysates of TXNDC11-KO cells transfected with 3x Flag-tagged TXNDC11 (WT or cysteine mutant) and Myc-tagged EDEM2; blots with anti-EDEM2 and anti-TXNDC11.
Take B1: the binding result was “binds”.
Then B2, with “no binding”; and B3, with “binds”.
